# Experimental data: US20120065254
# Chains of the proteins cited; added tags and fusions are not shown. A line that says so, or that is headed by a name, gives the form on record, which may keep a tag or linker.
# human complement C5 (Homo sapiens), one chain, as listed by the source: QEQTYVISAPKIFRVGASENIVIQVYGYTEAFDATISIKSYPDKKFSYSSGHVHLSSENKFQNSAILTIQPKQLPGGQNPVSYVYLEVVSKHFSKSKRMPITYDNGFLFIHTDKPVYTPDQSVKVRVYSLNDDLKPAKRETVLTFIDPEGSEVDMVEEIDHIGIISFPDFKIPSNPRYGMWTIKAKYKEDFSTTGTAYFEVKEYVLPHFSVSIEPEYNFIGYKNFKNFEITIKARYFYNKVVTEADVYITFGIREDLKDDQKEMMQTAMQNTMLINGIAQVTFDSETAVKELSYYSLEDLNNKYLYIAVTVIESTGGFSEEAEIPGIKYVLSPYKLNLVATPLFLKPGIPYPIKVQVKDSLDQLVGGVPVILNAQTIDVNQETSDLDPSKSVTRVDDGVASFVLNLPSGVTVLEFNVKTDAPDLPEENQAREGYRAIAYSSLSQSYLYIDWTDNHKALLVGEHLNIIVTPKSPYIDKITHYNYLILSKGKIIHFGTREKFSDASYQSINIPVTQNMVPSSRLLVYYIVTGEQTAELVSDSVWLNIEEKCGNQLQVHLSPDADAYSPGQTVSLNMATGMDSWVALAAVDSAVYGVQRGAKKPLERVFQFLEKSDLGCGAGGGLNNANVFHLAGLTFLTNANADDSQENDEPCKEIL
# For at least one entry, the source does not settle the construct or the ends of the probe. For part of these data: Weaker means in comparison with the reference protein, sequence or condition of that experiment. For part of these data: Tags and fusion partners may be left off the protein sequences shown.
# Tests used:
# [1] = biological target: T1, human C5a (L-form) (Homo sapiens) (UniProt P01031); assay: SPR; settings: purified recombinant protein, mirror-image nucleic acid
# T1 sequence: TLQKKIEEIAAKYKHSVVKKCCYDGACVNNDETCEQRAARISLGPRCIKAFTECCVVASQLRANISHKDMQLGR
# [2] = system: human complement C5 (Homo sapiens); assay: SPR; settings: L-RNA [all (L-RNA)]; improved C5 binding over 179-A3-014; purified native protein; protein details: from human plasma, Sigma C3160; mirror-image nucleic acid; letters built from the parent sequence and the stated change; variant of 179-A3-014 Spiegelmer
# [3] = system: T2, His6-macC5a (macaque C5a) (Macaca mulatta); assay: activity in cells; settings: L-RNA, purified recombinant protein, protein details: His6, E. coli BL21, mirror-image nucleic acid
# T2 sequence: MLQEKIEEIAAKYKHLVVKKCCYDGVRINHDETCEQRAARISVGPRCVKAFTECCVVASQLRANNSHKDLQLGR
# [4] = biological target: T1, human C5a (L-form) (Homo sapiens); assay: activity in cells; settings: L-RNA; inhibits chemotaxis of U937 cells to 0.1 nM C5a; purified recombinant protein; protein details: Sigma C5788; synthetic backbone; mirror-image nucleic acid
# [5] = L-RNA [all (L-RNA)], derivatives slightly declined vs 182-E5, protein details: recombinant, Sigma C5788 for SPR and in vivo, letters built from the parent sequence and the stated change, variant of 182-E5 Spiegelmer
# [6] = L-RNA [all (L-RNA)], range given for all 182-D5 derivatives, protein details: recombinant, Sigma C5788 for SPR and in vivo, letters built from the parent sequence and the stated change, variant of 182-D5 Spiegelmer
# [7] = L-RNA [all (L-RNA)], slightly declined vs 185-H3-014, protein details: recombinant, Sigma C5788 for SPR and in vivo, letters built from the parent sequence and the stated change, variant of 185-H3-001 Spiegelmer
# [8] = L-RNA [all (L-RNA)], range for 182-E6-002 and -003, protein details: recombinant, Sigma C5788 for SPR and in vivo, letters built from the parent sequence and the stated change, variant of 182-E6 Spiegelmer
# [9] = L-RNA, 37 C, Mg, Ca, protein details: recombinant, Sigma C5788 for SPR and in vivo
# [10] = 10 nM blocked chemotaxis by 1 and 3 nM macaque C5a
sequence,measurement,setting,value
ACUGCGUUCGGACGUGGCAUGUUCCUUGACAAACGGUUGGCAGU [182-E5-010],binding result,[1]; [5],binds more weakly
CUGCAAGACGCCGAAUAGGACCGAAGUGUAGAAUCGUGCAG [182-D5-004],binding result,[1]; [6],binds
GCCGGGUGUUUACUUGCUUAAUAGGGGCCGGC [185-H3-018],binding result,[1]; [7],binds more weakly
GCGGCGUUCGGACGUGGCAUGUUCCUUGACAAACGGUUGGCCGC [182-E5-007],binding result,[1]; [5],binds more weakly
GCUGCAAGACGCCGAAUAGGACCGAAGUGUAGAAUCGUGCAGC [182-D5-003],binding result,[1]; [6],binds
GCUGCGUUCGGACGUGGCAUGUUCCUUGACAAACGGUUGGCAGC [182-E5-013],binding result,[1]; [5],binds more weakly
GCUGGGUUCGGACGUGGCAUGUUCCUUGAUAAACGGUUGCCAGC [182-E5-014],binding result,[1]; [5],binds more weakly
GCUGUCAGACGCCGAACAGGUCGCAUUGCGAAGAAUCGGGCAGC [182-E6-003],binding result,[1]; [8],binds
GGCCGAAGACGCCGCGUAGGACCCAAUGGGUAGAAUCGGCGGCC [179-A3-050],binding result,[2],binds
same,binding result,"[1]; L-RNA [all (L-RNA)], 37 C, Mg, Ca, protein details: recombinant, Sigma C5788 for SPR and in vivo, letters built from the parent sequence and the stated change, variant of 179-A3-014 Spiegelmer",binds
GGCUGAACACGCCGCGUAGGACCAAUGGUAGAAUGGGCAGCC [179-A3-047],binding result,"[1]; L-RNA [all L-RNA], 37 C, called C5a binding nucleic acid, protein details: Sigma C5788, synthetic backbone, letters built from the parent sequence and the stated change",binds
GGCUGAACACGCCGCGUAGGACCCAAUGGGUAGAAUGGGCAGCC [179-A3-014 Spiegelmer],binding result,"[1]; L-RNA, 37 C, 1 mM MgCl2, 1 mM CaCl2, protein details: recombinant, Sigma C5788 for SPR and in vivo, variant of 179-A3 Spiegelmer",binds
GGGGCGUGUUUACUUGCUUAAUAGGGAGCCCC [185-H3-019],binding result,[1]; [7],binds more weakly
GUACUGCGUUCGGACGUGGCAUGUUCCUUGACAAACGGUUGGCAGU [182-E5-015],binding result,[1]; [5],binds more weakly
GUACUGCGUUCGGACGUGGCAUGUUCCUUGACAAACGGUUGGCAGUAC [182-E5 Spiegelmer],binding result,"[1]; L-RNA, protein details: recombinant, Sigma C5788 for SPR and in vivo",binds
same,functional effect of the aptamer,"[3]; only weak inhibition, dose not given here",less active
GUGCUGCAAGACGCCGAAUAGGACCGAAGUGUAGAAUCGUGCAGCAC [182-D5 Spiegelmer],binding result,[1]; [9],binds
same,functional effect of the aptamer,[4],active
same,functional effect of the aptamer,[3]; [10],active
GUGCUGGACAGGACCAAGGUAAGGGCGGACCGAAAAACCUAGCAGCAC [182-A5 Spiegelmer],binding result,[1]; [9],binds
same,functional effect of the aptamer,[4],active
same,functional effect of the aptamer,[3]; [10],active
GUGCUGGGUUCGGACGUGGCAUGUUCCUUGAUAAACGGUUGCCAGCAC [182-E5-016],binding result,[1]; [5],binds more weakly
GUGCUGUCAGACGCCGAACAGGUCGCAUUGCGAAGAAUCGGGCAGCAC [182-E6 Spiegelmer],binding result,[1]; [9],binds
same,functional effect of the aptamer,[4],active
same,functional effect of the aptamer,[3]; [10],active
UACUGCGUUCGGACGUGGCAUGUUCCUUGACAAACGGUUGGCAGUA [182-E5-009],binding result,[1]; [5],binds more weakly
UACUGCGUUCGGACGUGGCAUGUUCCUUGACAAACGGUUGGCAGUAC [182-E5-011],binding result,[1]; [5],binds more weakly
UGCUGCAAGACGCCGAAUAGGACCGAAGUGUAGAAUCGUGCAGCA [182-D5-002],binding result,[1]; [6],binds
UGCUGUCAGACGCCGAACAGGUCGCAUUGCGAAGAAUCGGGCAGCA [182-E6-002],binding result,[1]; [8],binds
